{"sequences": {"note": "By UniProt entry, the sequences of proteins in these tests, tags left out. Where a name states a change or a piece, a line headed by the entry shows the natural chain unless it says otherwise.", "UniProt P27243": "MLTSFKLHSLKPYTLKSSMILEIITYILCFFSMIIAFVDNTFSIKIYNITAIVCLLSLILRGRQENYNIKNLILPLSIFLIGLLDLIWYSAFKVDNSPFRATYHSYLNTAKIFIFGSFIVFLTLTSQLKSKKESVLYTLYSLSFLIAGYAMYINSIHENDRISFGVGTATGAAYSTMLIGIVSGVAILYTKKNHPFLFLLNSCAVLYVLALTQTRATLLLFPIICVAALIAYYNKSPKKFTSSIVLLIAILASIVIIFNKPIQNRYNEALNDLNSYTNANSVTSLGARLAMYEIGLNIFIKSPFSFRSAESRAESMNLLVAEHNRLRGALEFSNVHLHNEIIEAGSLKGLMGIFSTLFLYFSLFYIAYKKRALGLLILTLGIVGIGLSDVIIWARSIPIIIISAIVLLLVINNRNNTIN", "UniProt P28638": "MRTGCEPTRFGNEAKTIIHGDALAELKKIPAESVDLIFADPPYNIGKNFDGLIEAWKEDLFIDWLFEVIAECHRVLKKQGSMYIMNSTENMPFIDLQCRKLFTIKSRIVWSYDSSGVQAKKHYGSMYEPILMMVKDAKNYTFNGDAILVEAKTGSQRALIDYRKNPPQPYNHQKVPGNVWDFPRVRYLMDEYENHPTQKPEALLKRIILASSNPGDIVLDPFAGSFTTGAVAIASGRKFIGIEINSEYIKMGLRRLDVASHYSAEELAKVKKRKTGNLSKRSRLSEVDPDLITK", "UniProt P27896": "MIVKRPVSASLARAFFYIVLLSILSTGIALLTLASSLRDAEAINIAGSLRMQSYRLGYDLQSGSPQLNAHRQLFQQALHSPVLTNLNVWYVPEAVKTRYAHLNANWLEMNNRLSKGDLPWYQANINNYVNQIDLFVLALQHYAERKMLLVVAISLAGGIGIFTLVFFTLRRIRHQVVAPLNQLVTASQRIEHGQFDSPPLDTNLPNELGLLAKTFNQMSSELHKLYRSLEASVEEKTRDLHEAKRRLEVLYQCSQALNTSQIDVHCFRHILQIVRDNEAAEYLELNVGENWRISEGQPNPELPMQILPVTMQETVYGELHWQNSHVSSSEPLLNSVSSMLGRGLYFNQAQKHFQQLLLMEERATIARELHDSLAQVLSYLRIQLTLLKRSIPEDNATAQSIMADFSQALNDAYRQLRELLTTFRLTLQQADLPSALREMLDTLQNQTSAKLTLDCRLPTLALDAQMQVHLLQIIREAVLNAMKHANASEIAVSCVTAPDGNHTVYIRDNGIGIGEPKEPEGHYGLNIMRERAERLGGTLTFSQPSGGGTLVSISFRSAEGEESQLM", "UniProt P32125": "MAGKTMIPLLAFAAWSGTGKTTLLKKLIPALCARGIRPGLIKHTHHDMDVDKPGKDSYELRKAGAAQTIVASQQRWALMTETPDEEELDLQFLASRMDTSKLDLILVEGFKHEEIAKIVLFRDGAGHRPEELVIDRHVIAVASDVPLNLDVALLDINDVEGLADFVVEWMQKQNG", "UniProt P31663": "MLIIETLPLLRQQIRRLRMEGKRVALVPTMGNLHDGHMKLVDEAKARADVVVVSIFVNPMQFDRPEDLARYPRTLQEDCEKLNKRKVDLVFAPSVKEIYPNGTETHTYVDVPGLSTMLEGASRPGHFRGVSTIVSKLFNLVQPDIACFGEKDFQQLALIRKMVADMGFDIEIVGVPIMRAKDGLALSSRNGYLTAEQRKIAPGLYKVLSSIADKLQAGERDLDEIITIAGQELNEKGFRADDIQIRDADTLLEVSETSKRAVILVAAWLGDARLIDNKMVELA", "UniProt P24230": "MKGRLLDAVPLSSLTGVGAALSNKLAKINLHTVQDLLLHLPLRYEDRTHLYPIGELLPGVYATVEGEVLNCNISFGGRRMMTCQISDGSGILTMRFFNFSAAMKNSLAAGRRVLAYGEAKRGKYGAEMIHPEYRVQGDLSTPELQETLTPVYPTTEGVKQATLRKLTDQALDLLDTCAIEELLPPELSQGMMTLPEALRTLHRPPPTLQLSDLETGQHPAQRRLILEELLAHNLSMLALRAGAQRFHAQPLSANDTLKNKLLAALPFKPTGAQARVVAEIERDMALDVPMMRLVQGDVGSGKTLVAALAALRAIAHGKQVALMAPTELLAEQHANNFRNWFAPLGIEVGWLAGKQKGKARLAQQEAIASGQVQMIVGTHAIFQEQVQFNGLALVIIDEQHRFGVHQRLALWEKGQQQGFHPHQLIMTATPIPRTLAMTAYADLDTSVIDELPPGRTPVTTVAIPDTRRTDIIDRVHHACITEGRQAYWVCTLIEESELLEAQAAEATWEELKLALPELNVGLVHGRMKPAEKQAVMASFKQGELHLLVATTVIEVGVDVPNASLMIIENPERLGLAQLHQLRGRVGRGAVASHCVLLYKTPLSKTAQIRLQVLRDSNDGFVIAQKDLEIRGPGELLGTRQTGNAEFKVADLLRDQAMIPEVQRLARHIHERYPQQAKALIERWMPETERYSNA", "UniProt P32681": "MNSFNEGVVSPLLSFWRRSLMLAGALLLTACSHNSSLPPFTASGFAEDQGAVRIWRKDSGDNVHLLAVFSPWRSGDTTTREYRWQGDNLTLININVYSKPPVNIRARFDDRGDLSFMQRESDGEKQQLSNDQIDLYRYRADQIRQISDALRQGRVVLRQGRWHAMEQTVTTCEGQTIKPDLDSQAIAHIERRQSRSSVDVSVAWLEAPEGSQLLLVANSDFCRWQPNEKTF", "UniProt P27300": "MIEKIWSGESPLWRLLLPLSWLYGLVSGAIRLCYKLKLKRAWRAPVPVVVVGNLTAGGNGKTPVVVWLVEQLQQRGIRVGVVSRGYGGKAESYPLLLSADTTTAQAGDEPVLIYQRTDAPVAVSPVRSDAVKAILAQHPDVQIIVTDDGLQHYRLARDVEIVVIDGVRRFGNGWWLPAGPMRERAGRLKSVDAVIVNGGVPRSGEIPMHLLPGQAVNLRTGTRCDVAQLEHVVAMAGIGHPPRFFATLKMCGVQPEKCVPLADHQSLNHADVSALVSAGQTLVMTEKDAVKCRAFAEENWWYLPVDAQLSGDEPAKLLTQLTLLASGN", "UniProt P30859": "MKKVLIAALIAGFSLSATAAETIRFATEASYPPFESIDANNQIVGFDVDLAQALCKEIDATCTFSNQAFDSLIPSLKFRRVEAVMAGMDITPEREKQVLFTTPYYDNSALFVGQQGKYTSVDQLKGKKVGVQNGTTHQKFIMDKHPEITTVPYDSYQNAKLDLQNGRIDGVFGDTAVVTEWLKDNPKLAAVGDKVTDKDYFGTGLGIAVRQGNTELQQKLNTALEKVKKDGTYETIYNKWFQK", "UniProt P33234": "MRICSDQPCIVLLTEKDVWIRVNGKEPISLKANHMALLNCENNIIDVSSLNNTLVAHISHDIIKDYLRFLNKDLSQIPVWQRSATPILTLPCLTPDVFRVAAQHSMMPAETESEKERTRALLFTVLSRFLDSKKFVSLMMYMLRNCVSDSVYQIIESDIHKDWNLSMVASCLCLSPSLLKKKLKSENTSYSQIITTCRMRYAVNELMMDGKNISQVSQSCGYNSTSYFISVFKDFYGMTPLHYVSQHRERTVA", "UniProt P32162": "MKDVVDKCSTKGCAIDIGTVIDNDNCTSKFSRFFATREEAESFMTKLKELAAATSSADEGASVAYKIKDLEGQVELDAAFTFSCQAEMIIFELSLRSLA", "UniProt P33025": "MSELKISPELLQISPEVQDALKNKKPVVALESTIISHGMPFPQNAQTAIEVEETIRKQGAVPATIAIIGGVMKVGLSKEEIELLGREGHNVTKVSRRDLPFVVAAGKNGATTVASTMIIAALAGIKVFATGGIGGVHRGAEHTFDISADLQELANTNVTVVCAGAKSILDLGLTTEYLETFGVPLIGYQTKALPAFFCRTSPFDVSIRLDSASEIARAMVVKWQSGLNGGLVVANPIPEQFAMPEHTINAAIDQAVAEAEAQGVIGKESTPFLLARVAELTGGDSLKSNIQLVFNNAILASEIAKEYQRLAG"}, "source": "the supplement of paper PMC12819154", "about": "“High-throughput peptide-centric local stability assay extends protein–ligand identification to membrane proteins, tissues and bacteria” (Nature Structural & Molecular Biology, 2025)", "note": "The list shows a part of the results. Most values lie at the level of the controls, where differences are scatter."}
{"compound": "CC1(C)S[C@@H]2[C@H](NC(=O)[C@H](N)c3ccccc3)C(=O)N2[C@H]1C(=O)O [ampicillin]", "test": "log2 fold change of tryptic peptide abundance, ligand vs vehicle (limited proteolysis) (log2 ratio); higher = more trypsin-susceptible (destabilized)", "conditions": "ligand concentration: 10 uM; sample: E. coli crude lysate"}
{"target": "UniProt P27243 (peptide sequence: QENYNIK, peptide start residue: 64)", "log2 fold change": 0.0252}
{"target": "UniProt P28638 (peptide sequence: ALIDYRK, peptide start residue: 158)", "log2 fold change": 0.209}
{"target": "UniProt P27896 (peptide sequence: DNGIGIGEPK, peptide start residue: 508)", "log2 fold change": -0.348}
{"target": "UniProt P32125 (peptide sequence: KAGAAQTIVASQQR, peptide start residue: 62)", "log2 fold change": 0.276}
{"target": "UniProt P31663 (peptide sequence: KIAPGLYK, peptide start residue: 199)", "log2 fold change": 0.344}
{"target": "UniProt P24230 (peptide sequence: LLAALPFKPTGAQAR, peptide start residue: 261)", "log2 fold change": -0.179}
{"target": "UniProt P32681 (peptide sequence: FDDRGDLSFMQR, peptide start residue: 108)", "log2 fold change": 0.0253}
{"target": "UniProt P27300 (peptide sequence: TDAPVAVSPVR, peptide start residue: 117)", "log2 fold change": 0.0622}
{"target": "UniProt P30859 (peptide sequence: RVEAVMAGMDITPER, peptide start residue: 80)", "log2 fold change": -0.615}
{"target": "UniProt P33234 (peptide sequence: VNGKEPISLK, peptide start residue: 22)", "log2 fold change": 0.286}
{"target": "UniProt P32162 (peptide sequence: DVVDKCSTK, peptide start residue: 3)", "log2 fold change": 0.282}
{"target": "UniProt P33025 (peptide sequence: ESTPFLLAR, peptide start residue: 268)", "log2 fold change": -0.223}
